# From US20230172897A1, “METHODS OF TREATING BREAST CANCERS WITH SELECTIVE ANDROGEN RECEPTOR MODULATORS AND ADDITIONAL THERAPEUTIC AGENTS” (VERU, INC., priority 2021, published 2023)
# Sequences of proteins named here, by UniProt entry; tags and fusion partners are left off. Residues count along the entry.
# UniProt P10275: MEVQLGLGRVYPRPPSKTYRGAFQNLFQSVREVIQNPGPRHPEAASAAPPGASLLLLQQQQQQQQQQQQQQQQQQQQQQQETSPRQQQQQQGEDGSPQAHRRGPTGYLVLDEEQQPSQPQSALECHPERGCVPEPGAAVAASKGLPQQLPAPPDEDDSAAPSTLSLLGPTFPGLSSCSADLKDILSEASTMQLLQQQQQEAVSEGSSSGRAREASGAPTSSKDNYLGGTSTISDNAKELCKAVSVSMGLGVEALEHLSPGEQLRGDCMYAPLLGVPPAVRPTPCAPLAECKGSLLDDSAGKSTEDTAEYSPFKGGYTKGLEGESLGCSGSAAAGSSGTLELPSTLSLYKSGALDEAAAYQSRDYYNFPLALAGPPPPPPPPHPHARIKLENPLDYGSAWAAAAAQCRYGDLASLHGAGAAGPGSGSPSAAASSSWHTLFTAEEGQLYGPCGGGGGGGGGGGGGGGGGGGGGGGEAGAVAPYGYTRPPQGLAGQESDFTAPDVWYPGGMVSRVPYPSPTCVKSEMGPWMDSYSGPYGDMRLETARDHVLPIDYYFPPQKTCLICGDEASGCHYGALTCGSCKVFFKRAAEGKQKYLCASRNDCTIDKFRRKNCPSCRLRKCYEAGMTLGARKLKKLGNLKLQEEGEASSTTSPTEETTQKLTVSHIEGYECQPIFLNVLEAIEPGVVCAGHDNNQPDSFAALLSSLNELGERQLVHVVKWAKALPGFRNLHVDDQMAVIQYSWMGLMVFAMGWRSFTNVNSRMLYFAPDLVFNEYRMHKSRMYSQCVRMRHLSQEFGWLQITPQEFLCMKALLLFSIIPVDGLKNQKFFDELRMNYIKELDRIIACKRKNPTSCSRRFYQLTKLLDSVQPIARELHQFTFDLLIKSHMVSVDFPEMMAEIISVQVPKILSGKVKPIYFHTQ
# UniProt Q15788, residues 2-1441: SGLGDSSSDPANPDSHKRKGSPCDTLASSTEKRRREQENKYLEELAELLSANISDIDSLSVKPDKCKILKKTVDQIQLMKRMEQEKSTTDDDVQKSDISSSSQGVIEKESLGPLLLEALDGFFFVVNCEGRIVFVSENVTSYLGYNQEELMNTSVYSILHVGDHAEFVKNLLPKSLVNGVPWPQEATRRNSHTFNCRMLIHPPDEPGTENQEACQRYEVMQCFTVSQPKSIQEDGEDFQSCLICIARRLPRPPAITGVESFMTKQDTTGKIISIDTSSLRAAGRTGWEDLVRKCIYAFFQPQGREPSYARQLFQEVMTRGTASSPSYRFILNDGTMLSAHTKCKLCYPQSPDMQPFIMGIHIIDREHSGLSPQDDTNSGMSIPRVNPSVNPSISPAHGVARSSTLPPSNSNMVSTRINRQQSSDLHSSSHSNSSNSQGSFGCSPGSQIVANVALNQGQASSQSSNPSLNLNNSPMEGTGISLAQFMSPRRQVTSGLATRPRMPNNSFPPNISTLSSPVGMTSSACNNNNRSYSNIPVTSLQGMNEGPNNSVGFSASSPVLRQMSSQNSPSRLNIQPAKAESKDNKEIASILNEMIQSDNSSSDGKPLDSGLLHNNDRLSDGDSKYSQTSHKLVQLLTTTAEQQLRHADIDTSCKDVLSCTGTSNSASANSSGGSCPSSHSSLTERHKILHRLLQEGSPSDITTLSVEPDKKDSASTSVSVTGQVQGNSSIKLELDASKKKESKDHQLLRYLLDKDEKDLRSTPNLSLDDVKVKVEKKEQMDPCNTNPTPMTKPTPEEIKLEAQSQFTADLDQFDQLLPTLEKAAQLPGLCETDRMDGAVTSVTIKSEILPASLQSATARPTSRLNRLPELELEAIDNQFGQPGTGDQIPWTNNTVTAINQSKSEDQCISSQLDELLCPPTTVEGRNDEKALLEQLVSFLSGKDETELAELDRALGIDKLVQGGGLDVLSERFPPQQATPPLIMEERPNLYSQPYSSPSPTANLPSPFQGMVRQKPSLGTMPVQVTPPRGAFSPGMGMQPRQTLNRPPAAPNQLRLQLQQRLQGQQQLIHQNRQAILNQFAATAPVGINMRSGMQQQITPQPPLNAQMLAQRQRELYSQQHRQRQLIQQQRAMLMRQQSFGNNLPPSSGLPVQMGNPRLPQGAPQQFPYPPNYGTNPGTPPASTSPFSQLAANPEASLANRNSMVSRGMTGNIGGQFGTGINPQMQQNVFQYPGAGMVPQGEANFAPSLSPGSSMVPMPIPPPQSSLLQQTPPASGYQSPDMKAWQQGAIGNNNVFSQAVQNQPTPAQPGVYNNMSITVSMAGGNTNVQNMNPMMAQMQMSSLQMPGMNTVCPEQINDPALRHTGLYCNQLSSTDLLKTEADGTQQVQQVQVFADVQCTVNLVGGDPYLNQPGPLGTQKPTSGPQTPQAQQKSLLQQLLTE
# These are yes or no findings as the source states them, for the method shown. In cells and extracts the contact can be indirect. Some results given as binding are weak or reduced against the parent protein; the word gives no strength.
# Tests used:
# [1] = target: androgen receptor (human (patient-derived xenograft HCI-13)) (UniProt P10275); assay: co-immunoprecipitation with AR antibody from HCI-13 tumor extracts (vehicle or Formula IX), Western blot for SRC-1
# [2] = target: androgen receptor (human (patient-derived xenograft HCI-13)) (UniProt P10275); assay: co-immunoprecipitation with AR antibody from HCI-13 tumor extracts, Western blot for SRC-1 (legend of FIG. 38G)
substance,measurement,setting,value
steroid receptor coactivator-1 (from UniProt Q15788 2-1441),binding,[1],binds
same,binding,[2],binds
